Measurements from PubChem BioAssay AID1347073 (National Center for Advancing Translational Sciences (NCATS), 2019).
The hits were mostly taken out for another list; the other results follow. Results filed as inconclusive are left out. Calls of active or inactive are those of the source. The call rests on the fitted dose curve; in most records, active means well fitted activation curve with a large enough effect; inconclusive means small, poorly fitted or top-dose-only effect; inactive means no such curve, though single readings can be large or run the other way.

Test: qHTS of TDP-43 Inhibitors: NCGC Sytravon Library Screen; further: 0% is about no effect; nearly all actives have a fitted effect of over 55% in size
Conditions: yeast TDP-43 toxicity rescue, BacTiter-Glo growth, 24 h; at 46.1 µM (top of the series)
Source text: The goal of this project is to identify new chemical probes capable of reversing the toxicity associated with TDP-43 which is associated with frontotemporal lobar degeneration and amyotrophic lateral sclerosis. These compounds will provide a complementary approach to deciphering the tangled mechanisms of toxicity and protection that we have uncovered through genome-wide genetic screens and are beginning to uncover in a large-scale proteomics analysis with mass spectroscopy. To this end, a miniaturized assay was developed to be screened against the Molecular Libraries Small Molecule Repository (MLSMR) to discover TDP-43 inhibitors. Please note that in the set-up this yeast-based assay compounds that inhibit as TDP-43, have a read-out as activators. NIH Chemical Genomics Center [NCGC] NIH Molecular Libraries Probe Centers Network [MLPCN] Assay Submitter (PI): Susan Lindquist, Whitehead Institute/MIT MLPCN Grant: R21 NS060957
Dispense 2.5 microL yeast galactose medium per 1536-well plate, pin compound, dispense 2.5 microL TDP-43 expressing yeast in galactose medium at OD600=0.02 (pregrown in raffinose medium to mid-log phase) per well, incubate for 24 hr at 30 deg C, and cell growth will be measured using 5 microL of Bactiter/Glo reagent to entire plate and read using Luminescence Protocol in ViewLux.

| Compound | growth rescue (activation) |
| --- | --- |
| O=S(=O)(c1ccc2nc(SCc3cccc(Cl)c3)[nH]c2c1)N1CCOCC1 | inactive: 12.3% |
